We go through three sequences from article doi:10.1101/2020.07.19.210252.

Protein sequences, listed by entry. Tags and fused reporters are not part of them.
UniProt P51114, whole entry: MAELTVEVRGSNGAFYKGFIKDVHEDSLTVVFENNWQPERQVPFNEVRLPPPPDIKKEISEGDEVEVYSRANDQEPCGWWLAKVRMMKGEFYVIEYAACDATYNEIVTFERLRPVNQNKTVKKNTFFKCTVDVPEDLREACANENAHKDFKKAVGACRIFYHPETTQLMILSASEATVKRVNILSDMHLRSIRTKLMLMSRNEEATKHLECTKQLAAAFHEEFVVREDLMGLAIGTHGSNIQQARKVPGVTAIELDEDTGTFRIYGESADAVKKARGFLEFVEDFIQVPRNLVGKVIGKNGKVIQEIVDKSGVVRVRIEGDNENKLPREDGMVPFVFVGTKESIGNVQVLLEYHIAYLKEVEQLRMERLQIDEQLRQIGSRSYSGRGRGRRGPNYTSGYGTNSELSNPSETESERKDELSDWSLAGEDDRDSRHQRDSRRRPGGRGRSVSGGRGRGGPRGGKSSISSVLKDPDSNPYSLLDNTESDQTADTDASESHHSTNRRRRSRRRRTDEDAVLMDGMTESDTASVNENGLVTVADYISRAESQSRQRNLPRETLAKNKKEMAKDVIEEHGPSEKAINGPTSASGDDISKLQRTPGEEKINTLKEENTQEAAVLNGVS

In one series the target is FXR1-GST (Homo sapiens) (UniProt P51114). Put plainly: EMSA.
The subject of a further series is GST. Put plainly: EMSA. In general terms: In EMSA bound probe runs differently from free probe, usually more slowly.

Read-outs that look alike come from different tables or passages of the source. The exact form of at least one protein or probe is not confirmed. For part of these data: Negatives hold for the conditions tested. For part of these data: A weaker result is weaker than the reference pair of the same experiment.

As for AACAUAUUUAUUCUU [cMYC 3'UTR-ARE6], the binding result with FXR1-GST (Homo sapiens) (described as poor affinity) is given as “binds more weakly”.
Take GAAAGAUUUAGCCAU [cMYC 3'UTR-ARE1]: the binding result in the series with GST is reported as “no binding”.
Turning to UUAAGAUUUACACAA [cMYC 3'UTR-ARE3], the binding result with FXR1-GST (Homo sapiens) is recorded as “binds more weakly”.
